Assay results: patent publication US20050064576A1, “Methods for remediating materials contaminated with halogenated aromatic compounds” (priority 2003, published 2005)

Key:
[1] = test system: D. ethenogenes strain 195 pure culture; test: Dehalogenation of sediment-applied chloroaromatics by D. ethenogenes strain 195 pure culture; parameters: species or system Dehalococcoides ethenogenes; settings: for Dechlorination daughter products: after 249 days of incubation; for Dechlorination products: 28° C., sediment method
[2] = test system: D. ethenogenes strain 195; test: Chlorobenzene dechlorination by cultures of D. ethenogenes strain 195; parameters: species or system Dehalococcoides ethenogenes; settings: for Original clorobenzene Remaining: 2 mM chlorobenzene; for Dechlorination by strain 195: with first dose of PCE
[3] = test system: D. ethenogenes strain 195; test: Transfer of dechlorination activity with compound as sole electron acceptor; parameters: species or system Dehalococcoides ethenogenes
[4] = test system: Dehalococcoides sp. strain CBDB1; settings: cited from earlier work
[5] = test system: mixed culture containing D. ethenogenes strain 195; test: Dechlorination by butyrate-PCE enriched mixed culture containing D. ethenogenes strain 195; parameters: species or system Dehalococcoides ethenogenes; settings: for Dechlorination products: 34° C., PCE added on day 0
[6] = after 150 days, starter dose of PCE
[7] = mixed culture, dioxin amended to sediment

Clc1cc2c(cc1Cl)Oc1cc(Cl)c(Cl)cc1O2 [2,3,7,8-TeCDD]
Dechlorination daughter products [1]: not detected

Clc1cc(Cl)c(Cl)c(Cl)c1 [1,2,3,5-TeCB]
Original clorobenzene Remaining [2, 6]: 93 mol %
Dechlorination products formed: TCB 1,2,4 [2, 6]: 1 mol %
Dechlorination products formed: TCB 1,3,5 [2, 6]: 6 mol %

Clc1cc(Cl)c(Cl)cc1Cl [1,2,4,5-TeCB]
Original clorobenzene Remaining [2, 6]: 25 mol %
Dechlorination products formed: DCB 1,3 [2, 6]: 5 mol %
Dechlorination products formed: DCB 1,4 [2, 6]: 10 mol %
Dechlorination products formed: TCB 1,2,4 [2, 6]: 60 mol %
Utilization by strain 195 [3]: utilized

Clc1c(Cl)c(Cl)c2ccccc2c1Cl [1,2,3,4-TeCN, 1,2,3,4-tetrachloronaphthalene]
Dechlorination daughter products [1]: primarily to an unidentified dichloronaphthalene congener (DCN)

Clc1cc(Cl)c(Cl)c(Cl)c1Cl [QCB, pentachlorobenzene]
Original clorobenzene Remaining [2, 6]: 12 mol %
Dechlorination products formed: DCB 1,3 [2, 6]: 3 mol %
Dechlorination products formed: TCB 1,2,4 [2, 6]: 15 mol %
Dechlorination products formed: TCB 1,3,5 [2, 6]: 60 mol %
Dechlorination products formed: TeCB 1,2,3,5 [2, 6]: 10 mol %
Dechlorination by strain 195 [2]: dechlorinated
Utilization by strain 195 [3]: utilized
Conversion by cell extracts of strain CBDB1 [4]: capable of converting

Clc1c(Cl)c(Cl)c(Cl)c(Cl)c1Cl [HCB, hexachlorobenzene]
Original clorobenzene Remaining [2, 6]: 46 mol %
Dechlorination products formed: QCB [2, 6]: 10 mol %
Dechlorination products formed: TCB 1,2,4 [2, 6]: 1 mol %
Dechlorination products formed: TCB 1,3,5 [2, 6]: 20 mol %
Dechlorination products formed: TeCB 1,2,3,5 [2, 6]: 23 mol %
Dechlorination by strain 195 [2]: dechlorinated
Utilization by strain 195 [3]: utilized
Conversion by cell extracts of strain CBDB1 [4]: capable of converting

Clc1ccc(Cl)c(Cl)c1Cl [1,2,3,4-TeCB]
Original clorobenzene Remaining [2, 6]: 46 mol %
Dechlorination products formed: DCB 1,2 [2, 6]: 1 mol %
Dechlorination products formed: DCB 1,3 [2, 6]: 20 mol %
Dechlorination products formed: TCB 1,2,4 [2, 6]: 30 mol %
Dechlorination products formed: TCB 1,3,5 [2, 6]: 3 mol %
Utilization by strain 195 [3]: utilized

Clc1ccc(Cl)c(Cl)c1 [1,2,4-TCB]
Growth of strain CBDB1 with compound [4]: exhibits growth

Clc1c(Cl)c(Cl)c2c(oc3ccccc32)c1Cl [1,2,3,4-TeCDF, 1,2,3,4-Tetrachlorodibenzofuran]
Dechlorination products [1]: a trichlorinated dibenzo-furan (TrCDF) congener

Clc1c(Cl)c(Cl)c(-c2ccccc2)c(Cl)c1Cl [2,3,4,5,6-PeCB, 2,3,4,5,6-pentachlorobiphenyl]
Dechlorination products [1]: 2,3,4,6-TeCB and/or 2,3,5,6-TeCB (these congeners could not be resolved) and 2,4,6-trichlorobiphenyl (2,4,6-TrCB)

Clc1c(Cl)c(Cl)c2c(c1Cl)Oc1ccccc1O2 [1,2,3,4-TeCDD, 1,2,3,4-Tetrachlorodibenzo-p-dioxin]
Dechlorination products by strain CBDB1 [4]: 2,3-DCDD and 2-MCDD
Dechlorination products [1]: primarily 1,2,4-TrCDD, with a trace of 1,3-DCDD
Dechlorination efficiency by mode of addition ([5]; amended onto glass beads or serum bottle surfaces, versus sediment): less efficient
Dechlorination products [5, 7]: mixture of 1,2,4-trichlorodibenzo-p-dioxin (1,2,4-TrCDD) and 1,3-DCDD
Time for dechlorination to product mixture [5, 7]: ≤ 40 days
Original substrate remaining when dechlorination ceased ([5]; mixed culture, dioxin amended to sediment, despite re-amendment of electron donor): about 10%

Clc1cccc(Cl)c1Cl [1,2,3-TCB]
Growth of strain CBDB1 with compound [4]: exhibits growth

Clc1cc2c(cc1Cl)Oc1ccccc1O2 [2,3-DCDD, 2,3-dichlorodibenzo-p-dioxin]
Dechlorination daughter products [1]: not detected

ClC(Cl)=C(Cl)Cl [PCE, tetrachloroethene]
Dechlorination products of PCE dose ([2]; all cultures with chlorobenzene test substrate): VC and ethene
Dechlorination products by strain CBDB1 [4]: only to trans-1,2-DCE
Dechlorination products [1]: mixture of VC and ethene
Time for dechlorination to VC and ethene of re-added PCE ([1]; PCE 175 μM added day 164 and day 185): within two weeks
Lag period of dechlorination ([1]; PCE 350 μM added initially): approximately two months
Time for dehalogenation to VC and ethene after purging ([1]; after headspace purging on day 21): within five weeks
Dechlorination products [5, 7]: mixture of VC and ethene
